The target in the assay is T1, FLAG-tagged KDELR3 (K3-DDK) (human) (UniProt O43731).
T1 sequence: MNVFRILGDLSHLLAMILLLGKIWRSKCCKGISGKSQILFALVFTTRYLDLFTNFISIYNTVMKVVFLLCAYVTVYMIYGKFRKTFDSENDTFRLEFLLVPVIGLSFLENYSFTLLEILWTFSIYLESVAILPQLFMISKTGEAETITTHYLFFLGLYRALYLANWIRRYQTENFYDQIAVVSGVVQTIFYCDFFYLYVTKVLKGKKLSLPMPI
Put plainly: co-IP.

Amino acid sequences for entries named in this document (tags omitted).
UniProt Q9UKV5: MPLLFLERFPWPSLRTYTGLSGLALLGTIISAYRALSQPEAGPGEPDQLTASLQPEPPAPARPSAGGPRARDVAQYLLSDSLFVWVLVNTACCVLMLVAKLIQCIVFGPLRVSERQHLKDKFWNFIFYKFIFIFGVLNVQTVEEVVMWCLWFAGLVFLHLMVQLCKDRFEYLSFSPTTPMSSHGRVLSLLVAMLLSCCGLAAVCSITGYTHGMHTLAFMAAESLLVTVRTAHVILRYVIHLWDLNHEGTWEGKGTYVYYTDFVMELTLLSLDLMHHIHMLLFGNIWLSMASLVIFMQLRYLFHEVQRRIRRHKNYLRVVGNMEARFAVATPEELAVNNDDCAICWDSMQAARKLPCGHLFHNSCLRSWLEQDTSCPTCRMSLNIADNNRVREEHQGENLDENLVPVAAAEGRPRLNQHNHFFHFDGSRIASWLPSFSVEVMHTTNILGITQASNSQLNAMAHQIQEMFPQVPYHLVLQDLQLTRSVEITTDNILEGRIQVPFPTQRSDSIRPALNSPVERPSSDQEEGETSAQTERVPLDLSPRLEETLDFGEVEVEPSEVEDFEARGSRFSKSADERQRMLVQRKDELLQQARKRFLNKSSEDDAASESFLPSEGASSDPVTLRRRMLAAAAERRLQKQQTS

No constants are given. Whether binding was seen depends on the method and setting. In cells and extracts the contact can be indirect. Some binding calls cover weakened binding; strength is not graded here. Tags and fused reporters may be left off the sequences shown.

Consider “mCherry tagged gp78 (gp78-mCh) (from UniProt Q9UKV5 1-643) (enzyme)”, for which the binding entry is listed as “binds”. The entry for “endogenous gp78 (from UniProt Q9UKV5 1-643) (enzyme)” is “binds”.

These data come from doi:10.1101/721712.
